Reference: PubChem BioAssay AID1508600 (Functional Genomics Laboratory (NCATS/FGL), 2020)
Hit rate of the full screen: of about 53,000 sequences, about 3,700 (7%) were called active.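 Rule for the calls: active = gene knockdowns whose robust z-score for IL-1 alpha signal is at least 2 or at most -2, so actives lie on both sides; inactive = the rest.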 This is one part of the list.

Assay: Components of the Cytosolic LPS Sensing Pathway: Gene Identification via Genome-wide siRNA Screen;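 note: robust z of the log signal after scaling to non-targeting control siRNA wells of the plate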
Details: RAW264.7 macrophages, IL-1a HTRF, actives lie on both sides, screened at 100 nM (by protocol), cells primed 5 h with Pam3CSK4 first
Procedure, shortened: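 Mouse macrophage line RAW264.7 is transfected with siRNA (100 nM final), grown 48h, primed with TLR ligand Pam3CSK4 5 h and given intracellular LipidA 24 h. IL-1a in supernatant is read by HTRF and viability by luminescence.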
For GGCCAAUUCACCAACGGCATT against Jph2, the z-score was inactive: 0.632.
For GGAAGUCAAGGUGAUUUCATT against Nip7, the z-score was inactive: 1.12.
In the case of GGCAGUCAAGGCUAUGGACTT against Taf15, the z-score is reported as inactive: -0.111.
In the case of GGACGACUGAGUCUUUGAATT against Il20, the z-score is reported as inactive: 0.527.
With GGCUCUGUGAUGGUCUUACTT against Olfr446 the z-score was inactive: -1.1.
For GGAAAACCAGCACAAUUUATT against Cadm1, the z-score was active: 2.49.
With GCAGUACCCUUACAAUAAUTT against Ndufb8 the z-score was inactive: 0.931.
For GCUAUUCUGUCUACGUGUATT against H2bc18, the z-score was inactive: -0.356.
With GGAUCUUCUGGAUAGAAUGTT against Prc1 the z-score was inactive: 1.16.
With GCCCGAAAAAAACGUAGGATT against Map3k14 the z-score was inactive: 0.58.
With GGGUUUCUAUAUAUUUAGGTT against Cdca7 the z-score was inactive: 0.21.
For GGAAGACUUCACUAAGAUCTT against Dpysl5, the z-score was inactive: 0.793.
With GGUGGCAGUCACCAUUCUUTT against Il17rd the z-score was inactive: -0.364.
With “GGAAAGCUUGAAAAUGUUCTT against 4932438A13Rik” the z-score was inactive: -0.575.
For GGAAACAGUGAAAUGAGUATT against Tmem127, the z-score was inactive: -0.523.
For GGGACAGUGUCCCUUCCUUTT against Cox15, the z-score was inactive: -0.23.
In the case of GCCUUUUCCCGUCUGGAGATT against Glis1, the z-score is reported as inactive: 0.122.
In the case of GCACGCUAAGUAACGAAAGTT against Ero1b, the z-score is reported as inactive: 0.933.
For GGGUUCUAGUCUUCGAGACTT against Kdm3b, the z-score was inactive: 0.695.
With GGCGAGGGUUAAAAAUUUATT against Srsf1 the z-score was inactive: 0.388.
In the case of ACUAUCAUGAGUAGGCCCATT against Olfr32, the z-score is reported as inactive: 0.41.
In the case of GCAGCGAGGUUAUCAGUAATT against Sox8, the z-score is reported as inactive: -0.554.
For CCUAGAGAGACAUAUUGUUTT against Vstm4, the z-score was inactive: -0.206.
With GUGCUUGUGGAGGGUUUCUTT against Ctsg the z-score was inactive: -0.527.
With CCAAAGACCUAUGUAAGCUTT against Akap1 the z-score was inactive: -0.283.
In the case of GGUUUUAUCUGCUCUUCCATT against Cpb2, the z-score is reported as inactive: -0.423.
With GCGAGAAUCUUUUUGAGCUTT against Rpgrip1 the z-score was inactive: 0.612.
For CCAUUCUCCCGAGAAACUATT against Cela2a, the z-score was inactive: -0.0545.
With CCAUCUCAUCCCGAGUUAUTT against Xkr6 the z-score was inactive: 1.16.
For GGACGGCAGAAGUACAAACTT against Esrra, the z-score was inactive: -0.234.
For GCUCAACGGUUUACCCUCATT against Ppp5c, the z-score was inactive: -0.48.
With CCCAACAAAUUGAAACAUATT against Tbc1d31 the z-score was inactive: -0.821.
With GCCAUACUUCCCUACAAAATT against Kctd19 the z-score was inactive: 0.233.
In the case of GGACCAAGGAAUAUUUCCCTT against Serpinb9b, the z-score is reported as inactive: -0.564.
With CCCAUAGCUAAUGAACCAATT against Sntg2 the z-score was inactive: -0.604.
With GGGUAACACCUCAAGUUCATT against Rhag the z-score was active: 2.33.
For GGUCAUUGGUAGGUCCACUTT against Rusc2, the z-score was inactive: 0.338.
With GGCACAAAAGAAGAAGAUGTT against Retsat the z-score was inactive: -1.7.
For CGGCUUGGACAGAUUUAUCTT against Rer1, the z-score was inactive: 0.0516.
For GCGGAACCUCAAGUUCAGATT against Taf3, the z-score was inactive: 0.239.
With GCCCUUCUUAAAAUCCUGGTT against Itih3 the z-score was inactive: -1.27.
With GGAAGUGAAAACAAGCAAUTT against Hadhb the z-score was inactive: 0.0937.
In the case of GGAAGAAAUGCAUAAUGCATT against Mesd, the z-score is reported as inactive: 0.236.
With GCCCUGGAGUUUAUGAGGUTT against Vwa5b2 the z-score was inactive: 0.309.
In the case of GGUCUCGAAUGUAUGGUGCTT against Bicc1, the z-score is reported as inactive: 1.14.
With GGGAAAUCCUUUCAAGGAGTT against Creb1 the z-score was inactive: -0.722.
For GGUGAAGGUGUCGUACUUUTT against Padi1, the z-score was inactive: -1.64.
With CCUGCUGGGAUUUAUUCAATT against Pmvk the z-score was active: 2.52.
With GGAUUCCAAACCAGAAAACTT against Ccdc181 the z-score was inactive: 0.707.
For GGAAGAGGAGAAGAAAAAGTT against Syf2, the z-score was inactive: -1.25.
In the case of CCGAGAAAGUAUGCGCAACTT against Mlf1, the z-score is reported as inactive: 0.131.
With CCUCAAGCCCAAGUAAGACTT against Reep6 the z-score was inactive: -0.16.
In the case of GCUAUUGGGUAAUUUGCUUTT against Slco4a1, the z-score is reported as inactive: 0.436.
With GGCUGUCAGUGUUUACAGGTT against Srd5a1 the z-score was inactive: -0.247.
With GCUUAUGGAGUCCCUUGAUTT against Mipep the z-score was inactive: -1.01.
With GGUUACUCUAAAGUCAAGUTT against Nsun7 the z-score was inactive: 0.0659.
For GGAGAUUACGAGAUGUCAATT against Sde2, the z-score was inactive: -0.0213.
For GGAAUGUUGCCAUAGUGGATT against Mcrip2, the z-score was inactive: 1.28.
With CGACUUGCUAGGUCAGUGGTT against Echdc3 the z-score was inactive: 0.727.
With GGGAAGAAGCUAAAGAAGATT against Wipf1 the z-score was inactive: 1.44.
With CGGAAAACAUUGGACUCCCTT against Cdrt4 the z-score was inactive: -1.07.
For CCAUUGACACCUUAAAUAUTT against Cnot3, the z-score was inactive: 0.131.
For GGCGUAAAAUUCAAACUCATT against Cr2, the z-score was inactive: 1.02.
With GGACAGUCUACAUCUUUGUTT against Syne4 the z-score was inactive: -1.48.
For GGACAUCCUCUUACAGUGGTT against Zg16, the z-score was inactive: 0.333.
With GGUACUGUUUAUCAUUCAUTT against Hkdc1 the z-score was inactive: 1.05.
For GGCUGUAUUUUGUAUUGUCTT against Coa8, the z-score was inactive: 1.21.
With GGCGUGACUUGGAAACAUGTT against Itga8 the z-score was inactive: -1.19.
For GGUGGACUCCUUGACAGAUTT against Krt72, the z-score was inactive: 0.705.
With GGAGUAUUUUUUCACAGUUTT against Olfr338 the z-score was inactive: -0.999.
With CCAUUUACCAUAAGUUCUUTT against Ccnq the z-score was inactive: -0.373.
In the case of GCCGGAGCACAACAAUUCUTT against Kcnn2, the z-score is reported as inactive: 0.648.
With CCUACUACGAGAGGAAAACTT against Ak5 the z-score was inactive: -0.202.
In the case of GGCUGGAUUGUAGAAUUAATT against Vpreb1, the z-score is reported as inactive: 0.183.
In the case of GGAAAAGAUGAAAAGUGACTT against Myh11, the z-score is reported as inactive: -1.32.
In the case of GGAAGACUCACGGCUCAAATT against Ccdc124, the z-score is reported as inactive: -1.48.
For GGGCUUCAGAAGAGAAAAUTT against Plbd1, the z-score was inactive: 0.458.
In the case of CCAAGUUUUUAUGCAGAUATT against Pip5k1b, the z-score is reported as inactive: 1.6.
For GGACAUUGAGUCAAAAAUCTT against Slc19a2, the z-score was inactive: -0.966.
With GGGAGAUAACAUAAGUCAUTT against Trim56 the z-score was inactive: 1.09.
For CCCAGUACAGCCUUGUGGUTT against Med25, the z-score was active: -2.02.
In the case of CCUAAAUACGAUUGGUGUGTT against Cdca4, the z-score is reported as inactive: 1.06.
With CCGUAUCCGGCAUUGGAUUTT against Mrps16 the z-score was inactive: 0.558.
For GCAGAAUCACCUAAUUGUGTT against Adora2b, the z-score was inactive: -0.0978.
With GGUGAAAGGAGCAAAUGAUTT against Fyco1 the z-score was inactive: -0.332.
For GGAACAUCAUUACAGCCAATT against Unc80, the z-score was inactive: -0.113.
In the case of GGACGGUGACCUGUAUGAUTT against Cpxm1, the z-score is reported as active: -2.4.
For GGAUUUUGCACUAUAACAATT against Zmat3, the z-score was active: 3.83.
For GAAUGUGCAGAUAGCUGGCTT against Sdsl, the z-score was inactive: -0.54.
With GGAAUCUCAAUGAAAGAUGTT against Nwd2 the z-score was inactive: -0.379.
For GGUAGUUCUAUAGAUACUGTT against Rftn1, the z-score was inactive: 0.0743.
With GGGACACUACAUGAAGGCCTT against Tnfrsf25 the z-score was inactive: -0.472.
In the case of CCUCAUGUUAAUCUGGAGATT against Gabre, the z-score is reported as inactive: 0.0167.
With GCAAACAAUGCAACAAGCATT against Adam1b the z-score was inactive: 0.689.
With GGAAGAUCUGAAGUCAAUCTT against Mvk the z-score was inactive: -1.08.
In the case of AACCAUUCAGGAGAAAGCCTT against Lce1a1, the z-score is reported as active: -3.05.
In the case of GGGUAUUCUUUCAAUCAUATT against Fgf12, the z-score is reported as inactive: -1.82.
In the case of GGGCAAAACCAUCUUCCGGTT against Scn5a, the z-score is reported as inactive: 0.344.
With GGUCAAAGUCUAGGAGUUUTT against Spp1 the z-score was active: 2.56.
In the case of GCUGAAUCACUACCAGUCATT against Zfp462, the z-score is reported as inactive: 1.27.
In the case of GGGCGGAAAACUAGACCUATT against Btbd17, the z-score is reported as inactive: 0.494.
In the case of GGCUUCUAUUGCCAUAAUGTT against Olfr380, the z-score is reported as inactive: 0.568.
With GCUUCAAGAGACAAAACUCTT against Wsb1 the z-score was inactive: -0.0615.
For CCAGUGCGUUUGAGAUUGATT against Aanat, the z-score was inactive: 0.575.
With GGUGCACAAUUGACAACCGTT against Ntm the z-score was inactive: -0.258.
In the case of GGACAAGAAGAUAUUACUUTT against Ocln, the z-score is reported as inactive: 1.13.
For GCUUGUCAAGUUUGUGAGCTT against Sec14l4, the z-score was inactive: -0.0652.
With GGCCCGGAAACCUUUGCAUTT against Efna4 the z-score was inactive: 0.213.
